Laboratory results: PubChem BioAssay AID445 (National Center for Advancing Translational Sciences (NCATS), 2006)
The list shows a part of the results. These are further read-outs of the screen, such as a control signal, another cell line or another target. No call is given for them. The list favours compounds with an active or inconclusive main result. Words in brackets tell the shape of the fitted curve; partial curves, single points and poor fits give uncertain potencies.

Assay: IkB Signaling
Settings: ABC-DLBCL IkBa-CBG/CBR dual luciferase ratio (green luciferase fused to IkBa over red control in OCI-Ly3 lymphoma cells), 4 h
Procedure, shortened: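 In this assay, an IκBα–CBG68 fusion accumulates when IKK-driven degradation is blocked; native CBR normalizes for cell number. OCI-Ly3 cells were treated 4 h with compound and doxycycline, then green and red light read after Chroma-Glo addition.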

[1] = measured here: control luc red channel unless noted
[2] = measured here: IkB-luc green channel
[3] = measured here: control luc red channel

COc1ccc(N(C(=O)COc2ccc(Br)cc2)S(=O)(=O)c2ccc(C)cc2)cc1
AC50 [1]: 6.31 µM [falling, partial curve]

O=C(OCc1ccccc1Cl)c1ccc(-c2nnn(Cc3ccccc3Cl)n2)cc1
AC50 [1]: 5.01 µM [rising, partial curve]

CCCn1c(N2CCC(Cc3ccccc3)CC2)nc2c1c(=O)[nH]c(=O)n2C
AC50 [1]: 25.1 µM [falling, single point]

O=C(O)CCc1ccc(-c2ccccc2)n1-c1cccc(Br)c1
AC50 [1]: 15.8 µM [falling, partial curve]

Cc1ccc(S(=O)(=O)N[C@@H](Cc2ccccc2)C(=O)CCl)cc1
AC50 [2]: 3.16 µM [falling, partial curve] | AC50 [3]: 6.31 µM [falling, full curve]

COc1cc(/C=C/c2nc(C#N)c(NC(C)c3ccccc3)o2)cc(OC)c1OC (centres undefined)
AC50 [1]: 12.6 µM [falling, partial curve]

COc1cccc(-c2ccc3ncnc(NCc4ccccc4OC)c3c2)c1
AC50 [1]: 3.98 µM [falling, partial curve]

CN(Cc1ccccc1)C(=O)c1cc2c(s1)-c1ccc(Cl)cc1SC2
AC50 [1]: 39.8 µM [falling, single point]

CCN(c1ccccc1)S(=O)(=O)c1ccc(NCC2COc3ccccc3O2)nc1 (centres undefined)
AC50 [1]: 15.8 µM [falling, partial curve]

CCOC(=O)CCN(c1ccccc1)S(=O)(=O)c1ccc2[nH]c(=O)ccc2c1
AC50 [1]: 0.2 µM [falling, full curve, poor fit]

O=C(c1ccc(Cl)cc1)n1nc(-c2ccco2)nc1NCc1cccs1
AC50 [1]: 20 µM [falling, single point]

CCc1ccc(Oc2nc3c(C)cccn3c(=O)c2/C=C(\C#N)c2nc3ccccc3s2)cc1
AC50 [1]: 6.31 µM [falling, partial curve]

CN(C)c1ccc(-c2cncnc2Nc2ccc(F)cc2)cc1
AC50 [1]: 3.98 µM [falling, partial curve]

Cc1ccc2oc(C(=O)N(Cc3cccc(F)c3)C3CCS(=O)(=O)C3)c(C)c2c1 (centres undefined)
AC50 [1]: 25.1 µM [falling, single point]

Clc1ccc(OCc2nc(-c3ccncc3)no2)c(Cl)c1
AC50 [1]: 39.8 µM [falling, single point]

COc1cccc(OC)c1C(=O)Nc1nnc(C)s1
AC50 [1]: 3.16 µM [rising, partial curve]

O=C(COC(=O)C(Cc1c[nH]c2ccccc12)NC(=O)c1ccc(Br)cc1)c1ccc(Cl)cc1 (centres undefined)
AC50 [1]: 25.1 µM [falling, single point]

Cc1ccc2[nH]c3c(c2c1)CN(C(=O)CN1CCN(c2cccc(C)c2C)CC1)CC3
AC50 [1]: 12.6 µM [falling, partial curve]

CCOc1ccc(NC(=O)C2CCN(S(=O)(=O)c3cc(-c4noc(C)n4)ccc3C)CC2)cc1
AC50 [1]: 0.0631 µM [rising, full curve, poor fit]

CSc1cccc(-c2nnc(NC(=O)c3ccc4c(c3)OCCO4)o2)c1
AC50 [1]: 2 µM [falling, partial curve]

Oc1ccc2cc(SSc3ccc4cc(O)ccc4c3)ccc2c1
AC50 [1]: 39.8 µM [rising, single point] [measured here: IkB-luc green channel]

O=C(CCc1cn(Cc2ccccc2F)c2ccccc12)NCc1ccc(Cl)cc1
AC50 [1]: 7.94 µM [falling, partial curve]

COc1ccc(-c2ccc(NS(=O)(=O)c3cccc(Cl)c3)cc2)nn1
AC50 [1]: 15.8 µM [falling, partial curve]

O=C(c1cn(CCOc2ccccc2F)c2ccccc12)C1CCCCC1
AC50 [1]: 12.6 µM [falling, partial curve]

COc1ccc(NC(=O)CSc2oc(-c3cccs3)nc2S(=O)(=O)c2ccc(Br)cc2)c(OC)c1
AC50 [1]: 3.16 µM [falling, single point]

COc1ccc(NC(=O)c2ccccc2NC(=O)C2CCCO2)cc1 (centres undefined)
AC50 [1]: 5.01 µM [falling, partial curve]

Cc1ccc(Nc2sc(C(=O)c3ccccc3)c(N)c2C(=O)NC(C)C)cc1
AC50 [1]: 31.6 µM [falling, single point]

Cc1cccc(Cn2cc(C(=O)c3ccccc3)c(=O)c3cc4c(cc32)OCO4)c1
AC50 [1]: 25.1 µM [falling, single point]

CCc1nonc1NC(=O)c1oc2cc(C)c(Cl)cc2c1C
AC50 [1]: 2 µM [rising, partial curve]

COc1ccccc1-c1cc(C(=O)NCc2ccc(F)cc2)no1
AC50 [1]: 12.6 µM [falling, partial curve]

COc1ccccc1N1CCN(C(=O)c2sc3nc4n(c(=O)c3c2C)CCC4)CC1
AC50 [1]: 39.8 µM [falling, single point]

CCOc1ccc(C(=O)c2cn(Cc3ccccc3OC)c3cc4c(cc3c2=O)OCCO4)cc1
AC50 [1]: 31.6 µM [falling, single point]

CCn1c(=O)n(CC(=O)NC2CCCC(C)C2C)c(=O)c2ccccc21 (centres undefined)
AC50 [1]: 3.16 µM [falling, partial curve]

CCC(=O)N1CCc2cc(S(=O)(=O)CCC(=O)Nc3ccc(Cl)c(C(F)(F)F)c3)ccc21
AC50 [1]: 12.6 µM [falling, partial curve]

COc1cc(-c2cc(C(=O)N3CCN(c4ccccn4)CC3)c3ccccc3n2)cc(OC)c1OC
AC50 [1]: 10 µM [falling, partial curve]

O=C(NCC(c1ccccc1)c1ccccc1)c1nn(-c2ccccc2Cl)nc1CO
AC50 [1]: 15.8 µM [falling, partial curve]

CCc1ccc(S(=O)(=O)Nc2ccc(-c3ccc(N4CCCCCC4)nn3)cc2)cc1
AC50 [1]: 3.16 µM [falling, full curve]

CCCCOc1ccc(S(=O)(=O)N2CCN(c3ccccc3OCC)CC2)cc1
AC50 [1]: 3.98 µM [falling, partial curve]

COc1ccc(Cl)cc1NC(=O)CN(C)S(=O)(=O)c1ccc(Br)s1
AC50 [1]: 12.6 µM [falling, partial curve]

Cc1cc2c(c3oc(=O)c4ccccc4c13)CN(Cc1ccc(F)cc1)CO2
AC50 [1]: 39.8 µM [falling, single point]

O=C(Nc1cccc(Cl)c1)Nc1ccccc1OCc1cc(=O)n2ccccc2n1
AC50 [1]: 0.316 µM [falling, full curve, poor fit]

COc1cccc(CNC(=O)c2cc(-c3cccc(OC)c3)n[nH]2)c1
AC50 [1]: 6.31 µM [falling, partial curve]

O=S(=O)(c1ccc2[nH]c3c(c2c1)CCCCC3)N1CCN(c2ccccc2)CC1
AC50 [1]: 12.6 µM [falling, partial curve]

CCOC(=O)NC(NC(=O)OCC)C(=O)c1ccc(F)cc1
AC50 [1]: 1.26 µM [falling, full curve]

CC(=O)C1=C(c2ccc(Cl)c(Cl)c2)N(C(C)=O)n2c(C)nnc2S1
AC50 [2]: 31.6 µM [rising, single point] | AC50 [3]: 3.98 µM [falling, partial curve]

CCCc1nnc2n1N=C(c1ccc(-c3cc(Cl)ccc3Cl)o1)CS2
AC50 [1]: 15.8 µM [falling, partial curve]

Cc1cccc(C)c1NC(=O)c1oc2c(c1C)-c1nn(Cc3ccccc3)cc1CC2
AC50 [1]: 0.0316 µM [falling, full curve, poor fit]

Oc1ccc(-c2nnc(-c3ccc(O)cc3)nn2)cc1
AC50 [1]: 0.158 µM [falling, full curve]

O=C(Cn1ncc2c3ccccc3n(Cc3ccccc3F)c2c1=O)NCCc1ccc(Cl)cc1
AC50 [1]: 3.98 µM [falling, full curve, poor fit]

COc1cccc(CNC(=O)CSc2c3c(nc4ccc(Cl)cc24)CCCC3)c1OC
AC50 [1]: 12.6 µM [falling, partial curve]

Cc1ccccc1Nc1nnc(-c2ccc(C)c(S(=O)(=O)N3CCOCC3)c2)c2ccccc12
AC50 [1]: 39.8 µM [falling, single point]

Cc1cccc(N2CCN(C(=O)C3CCN(S(=O)(=O)c4cccs4)CC3)CC2)c1C
AC50 [1]: 3.98 µM [falling, partial curve]

COc1ccc(OC)c(NC(=O)Cn2cnc3c(oc4ccccc43)c2=O)c1
AC50 [1]: 15.8 µM [falling, partial curve]

C1COC(NC(C2CC2)C2CC2)=N1
AC50 [1]: 39.8 µM [falling, single point]

Cc1ccc(CNC(=O)CN(c2ccc(Cl)cc2Cl)S(=O)(=O)c2ccccc2)cc1
AC50 [1]: 12.6 µM [falling, partial curve]

Cc1ccc(-n2nc3c(N4CCCC(C(=O)NCCc5ccccc5)C4)nnc(C)c3c2C)cc1 (centres undefined)
AC50 [1]: 20 µM [falling, partial curve]

Cc1ccc(CCNC(=O)Cn2c(-c3cccs3)cc3cc(F)ccc32)cc1
AC50 [1]: 20 µM [falling, single point]

CCc1cccc2sc(N3CCN(C(=O)c4cc5ccccc5cc4OC)CC3)nc12
AC50 [1]: 7.94 µM [falling, single point]

N#CC1=C(N)Oc2cc3c(cc2C1c1ccc(Cl)cc1)OCO3 (centres undefined)
AC50 [1]: 25.1 µM [falling, partial curve]

COc1ccc(CC(=O)NCc2ccc3c(c2)CCN3C(=O)c2ccc(C)cc2)cc1OC
AC50 [1]: 12.6 µM [falling, single point]

COc1ccc(CNC(=O)c2ccc(-c3nc(CSc4ccccc4)c(C)o3)cc2)c(OC)c1
AC50 [1]: 20 µM [falling, partial curve]

Cc1ccc(-c2nc(C)c(CCNC(=O)C(=O)Nc3ccc4c(c3)OCO4)s2)cc1
AC50 [1]: 10 µM [rising, partial curve, poor fit]
